The source of these data is US20060204492A1 (published 2006).

These are yes or no findings as the source states them, for the method shown. Binding calls can cover weak binding; strength is not graded here.

This test addresses integrin αvβ3, purified from human placenta (human). The test can be described thus: competition ELISA, biotinylated fibrinogen on immobilized αvβ3.

B1: LM609 grafted antibody combinatorial clone C59 (Fab, V domains shown)
VH: QVQLVESGGGVVQPGRSLRLSCAASGFTFSSYDMSWVRQAPGKGLEWVAKVSSGGGSTYYPDTVQGRFTISRDNSKNTLYLQMNSLRAEDTAVYYCARHNYGSFADWGQGTTVTVSS
VL: EIVLTQSPATLSLSPGERATLSCQASQSISNFLHWYQQRPGQAPRLLIRYRSQSISGIPARFSGSGSGTDFTLTISSLEPEDFAVYYCQQSGSWPHTFGGGTKVEIK
notes: Fab
Turning to B1, the binding result is “binds”.

B2: LM609 grafted antibody variant S102 (Fab, V domains shown)
VH: QVQLVESGGGVVQPGRSLRLSCAASGFTFSSYDMSWVRQAPGKGLEWVAKVSSGGGSTYYLDTVQGRFTISRDNSKNTLYLQMNSLRAEDTAVYYCARHNYGSFASWGQGTTVTVSS
VL: EIVLTQSPATLSLSPGERATLSCQASQSISNHLHWYQQRPGQAPRLLIRYRSQSISGIPARFSGSGSGTDFTLTISSLEPEDFAVYYCQQSGSWPHTFGGGTKVEIK
notes: Fab; also called clone S102
As to B2, the binding result is reported as “binds”.
